Laboratory results from PubChem BioAssay AID2685 (National Center for Advancing Translational Sciences (NCATS), 2010).
The list shows a part of the results. Further columns of the screen follow, without active or inactive calls. Most of these compounds were active or inconclusive in the main read-out, so they are no random draw. The note in brackets gives the kind of curve behind each potency; many fits are weak.

Test: qHTS Assay for Lipid Storage Modulators in Drosophila S3 Cells;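 for cell number change: cells counted by Cell Tracker Red CMTPX staining in the red channel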
Conditions: BODIPY lipid droplet fluorescence, 18-24 h; for cell number change: measured here: cell count max response, cells fed with added oleic acid
Outline: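 Drosophila S3 cells loaded with oleic acid (400 uM, as added) and compounds at several concentrations; lipid droplets imaged by 488-nm laser-scanning cytometry, 500–530 nm intensity and object ratio to cell channel. Percent activity normalized to 20 uM Triacsin C.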

[1] = measured here: lipid fluorescence (Fed channel) AC50, cells fed with added oleic acid
[2] = measured here: cell number channel AC50, cells fed with added oleic acid

O=C1CC(SCc2nc3ccccc3[nH]2)C(=O)N1c1ccc(Cl)cc1 (stereo not given)
cell number change: 9.23% | AC50 [1]: 1.64 µM [falling, partial curve, poor fit]

Cc1ccc(Cl)c(NC(=O)COC(=O)c2nn(C)c(=O)c3ccccc23)c1Cl
cell number change: 15.1% | AC50 [1]: 8.2 µM [rising, full curve, poor fit]

CN1CCN(Cc2cccc3ncccc23)CC1CCO (stereo not given)
cell number change: -10.7%

O=C(COC(=O)C1CCCCC1)Nc1cccc(Br)c1
cell number change: 0.842% | AC50 [1]: 18.4 µM [falling, single point]

CCOC(=O)CC(=O)CSc1nc(C)nc2c1oc1ccccc12
cell number change: 12.8% | AC50 [2]: 1.3 µM [rising, partial curve]

O=C(CNS(=O)(=O)c1ccc(Br)s1)NCCc1ccc(Cl)cc1
AC50 [1]: 6.51 µM [rising, single point]

COc1ccc(S(=O)(=O)N(C)C)cc1NC(=O)c1ccc(OCC(=O)N2CCOCC2)c(OC)c1
cell number change: 21.4% | AC50 [1]: 29.1 µM [rising, single point]

COc1ccc(NC(=S)NCc2ccco2)c(OC)c1
AC50 [1]: 6.51 µM [falling, single point]

Cc1cc2ccccc2n2c(SCC(=O)NCC3CCCO3)nnc12 (stereo not given)
cell number change: 22.6% | AC50 [1]: 3.66 µM [falling, single point]

CCc1ccccc1NC(=O)NCc1ccccn1
cell number change: 14.4% | AC50 [1]: 3.26 µM [rising, single point]

OC(CNCCC(c1ccccc1)c1ccccc1)COc1ccccc1 (stereo not given)
cell number change: -121% | AC50 [2]: 29.1 µM [falling, single point]

CN(C)c1ccc(NC(=O)CSc2nc3c(c(=O)[nH]2)CCCC3)cc1
AC50 [1]: 0.0517 µM [rising, full curve, poor fit]

Nc1nc(CN2CCN(c3ccccn3)CC2)nc(Nc2ccc(Cl)cc2)n1
cell number change: 106% | AC50 [2]: 9.2 µM [rising, partial curve] | AC50 [1]: 4.61 µM [rising, partial curve]

Cc1ccc(C(C)C)c(OCC(O)CN2CCc3ccccc3C2)c1 (stereo not given)
cell number change: -49.3% | AC50 [2]: 23.1 µM [falling, single point]

CC(NC(=O)NC1CCCCC1)c1ccc2c(c1)OCO2 (stereo not given)
cell number change: -36% | AC50 [2]: 2.59 µM [falling, full curve] | AC50 [1]: 6.51 µM [falling, single point]

Cc1cccc(COc2ncnc3nc[nH]c23)c1
cell number change: -3.37% | AC50 [1]: 6.51 µM [rising, partial curve]

Cc1cc(C)n2c(=S)[nH]nc2n1
cell number change: -33.2% | AC50 [2]: 6.51 µM [falling, full curve, poor fit]

CCNc1nc(NC(N)=S)nc(NC(C)(C)C)n1
cell number change: 7.09% | AC50 [1]: 0.0058 µM [rising, full curve, poor fit]

COc1cc(OC)c(NC(=O)Cn2cnc3sc(C)c(S(=O)(=O)N4CCOCC4)c3c2=O)cc1Cl
cell number change: -23.8% | AC50 [2]: 0.146 µM [falling, full curve, poor fit]

Nc1nc(-c2cc3c(cc2Cl)OCCO3)cs1
cell number change: -32.8% | AC50 [2]: 14.6 µM [falling, partial curve, poor fit]

COc1ccc(Nc2cc(C(=O)NCCCN3CCOCC3)c3ccccc3n2)c(OC)c1
AC50 [1]: 0.116 µM [falling, full curve, poor fit]

COC(=O)C1CN(C(=O)c2ccc(OC(F)F)cc2)c2ccccc2O1 (stereo not given)
cell number change: 2.25%

Cc1ccc(-c2nn(-c3ccccc3)cc2NC(=O)CCl)cc1
cell number change: -75% | AC50 [2]: 29.1 µM [falling, single point] | AC50 [1]: 29.1 µM [falling, single point]

CCOC(=O)c1cnc(SCc2cccc3ccccc23)nc1N
AC50 [2]: 4.61 µM [rising, partial curve] | AC50 [1]: 0.651 µM [rising, single point]

CCCCCC(=O)Nc1ccc(S(=O)(=O)Nc2cc(OC)nc(OC)n2)cc1
cell number change: 36.9% | AC50 [2]: 7.31 µM [rising, partial curve] | AC50 [1]: 6.51 µM [rising, single point]

COC(=O)c1ccccc1NC(=O)Nc1ccc(C)cn1
cell number change: 104% | AC50 [2]: 18.4 µM [rising, single point]

Cc1cc(OC(=O)c2ccc(Cl)cc2Cl)nc(C)n1
cell number change: -22.7% | AC50 [1]: 29.1 µM [falling, single point]

COc1ccccc1CC(NC(C)=O)C(=O)NC1CCN(C(=O)Nc2ccc(F)cc2)CC1 (stereo not given)
cell number change: -3.85%

COc1cc(C2C(C#N)=C(N)Oc3cc(N)ccc32)cc(OC)c1OC (stereo not given)
cell number change: -29.7% | AC50 [2]: 4.11 µM [falling, full curve, poor fit] | AC50 [1]: 5.8 µM [falling, single point]

COC(=O)C(Cc1ccccc1)NC(=O)CSc1nc(C)cc(=O)[nH]1 (stereo not given)
cell number change: -44.7% | AC50 [2]: 16.4 µM [falling, single point] | AC50 [1]: 0.82 µM [falling, full curve]

COc1cccc(N2CCN(S(=O)(=O)c3ccc4ccccc4c3)CC2)c1
cell number change: 1.16% | AC50 [1]: 5.8 µM [falling, single point]

CC(=O)Nc1ccc(S(=O)(=O)Nc2cc3c(cc2C(C)=O)OCO3)cc1
cell number change: 15.1% | AC50 [1]: 6.51 µM [rising, single point]

COc1ccccc1CN1CCN(Cc2nc(-c3ccc(C)cc3)oc2C)CC1
cell number change: -8.63% | AC50 [1]: 0.731 µM [rising, full curve, poor fit]

CCOC(=O)CSC1=C(C#N)C(=O)NC2(CCCCC2)S1
cell number change: 30.6% | AC50 [2]: 29.1 µM [rising, single point]

NC(=O)CCN(Cc1ccccc1)S(=O)(=O)c1ccccc1
cell number change: -31.7% | AC50 [1]: 5.8 µM [falling, partial curve, poor fit]

Cc1cc(C)n(-c2nc3c(c(=O)[nH]c(=O)n3C)n2C)n1
cell number change: 35.5% | AC50 [2]: 16.4 µM [rising, single point]

CCC1(CC)Cc2ccccc2C(CC(=O)N2CCOCC2)=N1
AC50 [2]: 6.51 µM [rising, single point] | AC50 [1]: 0.651 µM [rising, single point]

Clc1ccccc1Nc1nnc(-c2ccncc2)s1
cell number change: -1.08% | AC50 [1]: 4.11 µM [rising, single point]
